{"source": "patent US9333194B2", "about": "“Use of ansamycin antibiotics and method of screening novel angiogenesis inhibitor” (Japan Science & Technology Agency, priority 2002, dated 2016)", "test_system": "hepatoma", "experiment": "Use in patients with hepatoma associated with hepatitis C-related liver cirrhosis", "assay_type": "in vivo, human", "settings": "patients with hepatitis C-related liver cirrhosis associated with lung tuberculosis, long-term administration; FIG. 5", "note": "For at least one compound, name, drawing or mass did not settle the structure."}
{"smiles": "CO[C@H]1/C=C/O[C@@]2(C)Oc3c(C)c(O)c4c(O)c(c(/C=N/N5CCN(C)CC5)c(O)c4c3C2=O)NC(=O)/C(C)=C\\C=C\\[C@H](C)[C@H](O)[C@@H](C)[C@@H](O)[C@@H](C)[C@H](OC(C)=O)[C@@H]1C", "note": "[rifampicin, 3-{[(4-methyl-1-piperazinyl)imino]methyl}rifamycin]", "values": [{"measurement": "plasma α-fetoprotein levels", "result": "rapid drop"}]}
